Test results published in publication PMC12855106.
No constants are given. Whether binding was seen depends on the method and setting. Binding seen in cells or lysates may run through a third protein. Some results given as binding are weak or reduced against the parent protein; the word gives no strength. Sequences can lack the tags named with a protein.

The chains behind the UniProt entries cited, without tags or fusion partners.
UniProt P03372: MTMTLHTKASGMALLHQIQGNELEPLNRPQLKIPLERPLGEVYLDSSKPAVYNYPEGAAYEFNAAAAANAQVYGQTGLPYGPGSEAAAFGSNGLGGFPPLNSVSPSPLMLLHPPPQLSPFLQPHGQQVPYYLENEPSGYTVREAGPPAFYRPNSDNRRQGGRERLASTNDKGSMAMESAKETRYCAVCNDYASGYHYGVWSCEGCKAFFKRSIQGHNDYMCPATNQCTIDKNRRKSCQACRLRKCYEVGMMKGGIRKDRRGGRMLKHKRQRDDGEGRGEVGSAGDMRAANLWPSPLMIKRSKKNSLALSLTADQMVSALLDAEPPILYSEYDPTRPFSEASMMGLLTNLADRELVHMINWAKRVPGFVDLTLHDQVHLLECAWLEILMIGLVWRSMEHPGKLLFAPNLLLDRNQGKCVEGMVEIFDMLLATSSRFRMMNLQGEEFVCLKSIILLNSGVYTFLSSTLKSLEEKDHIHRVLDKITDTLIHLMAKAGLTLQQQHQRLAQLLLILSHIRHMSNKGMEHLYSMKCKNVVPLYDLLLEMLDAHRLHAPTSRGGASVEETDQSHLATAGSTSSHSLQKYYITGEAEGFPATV

Molecular target: T1, 3xGST-GBP1 (guanylate-binding protein 1) (human) (UniProt P32455)
T1 sequence: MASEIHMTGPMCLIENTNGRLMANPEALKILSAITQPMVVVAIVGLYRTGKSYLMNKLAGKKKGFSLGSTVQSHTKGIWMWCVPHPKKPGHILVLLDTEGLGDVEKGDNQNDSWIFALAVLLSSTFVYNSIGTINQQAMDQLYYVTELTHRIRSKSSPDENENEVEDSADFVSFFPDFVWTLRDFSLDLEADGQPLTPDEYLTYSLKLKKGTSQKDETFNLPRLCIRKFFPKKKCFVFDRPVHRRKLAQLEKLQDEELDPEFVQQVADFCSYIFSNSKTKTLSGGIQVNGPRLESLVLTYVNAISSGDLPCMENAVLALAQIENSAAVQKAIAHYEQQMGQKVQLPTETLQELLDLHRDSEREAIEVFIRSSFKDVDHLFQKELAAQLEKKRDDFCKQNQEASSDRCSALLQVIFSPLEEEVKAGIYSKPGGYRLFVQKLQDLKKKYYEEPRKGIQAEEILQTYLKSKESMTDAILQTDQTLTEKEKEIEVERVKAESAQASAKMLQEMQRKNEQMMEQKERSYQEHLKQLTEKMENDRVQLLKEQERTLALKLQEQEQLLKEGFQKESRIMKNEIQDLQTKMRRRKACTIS
Experiment: co-IP; 3xFlag-ERα and 3xGST-GBP1 cotransfected into HepG2 2.15 cells for 48 h; RIPA lysate; IP with protein A+G magnetic beads carrying anti-GBP1 antibody, IgG as negative control; immunoblot with anti-GST/anti-Flag antibodies

3xFlag-ERα (estrogen receptor ERα) (from UniProt P03372 1-595)
binding: binds
